In the supplement of paper PMC5949888:
± gives the standard deviation of the averaged measurements. Most values lie at the floor of the assay. Slopes are relative: functional sequences can read slightly below zero.

These substances were tested on Saccharomyces cerevisiae PS128 hsf1 delta, HSF1(1-493) fusion (assay: growth estimate (transactivation domain function in HSF1 fusion, heat-shock survival) (a.u. (slope of normalised read count over time)); higher = stronger growth at 37°C, i.e. more transactivation activity). Settings: library: random library.
Experimental: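 Random 60-nt DNA library encoding peptides of up to 20 aa, fused to the C-terminus of yeast HSF1 residues 1-493 (C-terminal TAD deleted) and expressed from the native HSF1 promoter on a CEN plasmid in hsf1-deleted S. cerevisiae PS128. Cells were selected at 37°C on -trp 5-FOA plates for 0, 2, 4, 6 and 8 days and amplicons were sequenced. Growth estimate is the slope of a robust linear fit of total-sum-normalised read counts (normalised to the first time point) over time, using at least 2 replicates. Sequences are classed functional (TAD activity) above a threshold of -0.13, set from stop-codon control sequences.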
AFRALHQSTCEWRIDV was tested, and the growth estimate was -0.2.
In the case of LVWNKLAEVLLSPMHLFSDP, the growth estimate is reported as less than -0.25.
SGSRLT was tested, and the growth estimate was less than -0.25.
For VKVIMYLCLWERRFFPGAL, the growth estimate was less than -0.25.
ALSR showed a growth estimate of less than -0.25.
For ITSAKGP, the growth estimate was less than -0.25.
LIGI was tested, and the growth estimate was less than -0.25.
Substance PSQRTSKGF has a growth estimate of less than -0.25.
In the case of FNNDFPIQMHGRPKVFF, the growth estimate is reported as less than -0.25.
Work on AQIEEIVEMARG yielded a growth estimate of less than -0.25.
STPRVQTVRDRSSRVRLIAV showed a growth estimate of less than -0.25.
AMC showed a growth estimate of less than -0.25.
With HTRFRQTRAT the growth estimate was less than -0.25.
GHS gave a growth estimate of less than -0.25.
Work on VRRAGRAEFAGGTLLSASCR yielded a growth estimate of less than -0.25.
With LRE the growth estimate was less than -0.25.
Substance GYVELRGRLSRPATECSRAV has a growth estimate of less than -0.25.
TKDRLAYRE was tested, and the growth estimate was less than -0.25.
For SVLAVEADFSNRKARNILRR, the growth estimate was less than -0.25.
Work on QRFLEFGGT yielded a growth estimate of less than -0.25.
In the case of GTGGERRISLTIFKCKPAGT, the growth estimate is reported as less than -0.25.
SQLSRRRP was tested, and the growth estimate was less than -0.25.
FQSIPTAL was tested, and the growth estimate was less than -0.25.
Substance AAVDGSTWGSLCRLTAFAIV has a growth estimate of less than -0.25.
NIK was tested, and the growth estimate was less than -0.25.
HVMAVVAGEVCRGGYFKYSL showed a growth estimate of less than -0.25.
In the case of SKCEVCNRLLHTGAYFLNEC, the growth estimate is reported as less than -0.25.
With LRTCTKRNRVAKQLAILKSK the growth estimate was less than -0.25.
Work on NIGLLGPGEWYMPRAFRAAL yielded a growth estimate of less than -0.25.
HIRLSAPPYAIETI was tested, and the growth estimate was less than -0.25.
SRRSADESSPYTAGVLDQA showed a growth estimate of less than -0.25.
RWVFTQLL gave a growth estimate of -0.245.
VLTR gave a growth estimate of less than -0.25.
FVYDVRRGRAPWPWPAGLLL was tested, and the growth estimate was less than -0.25.
DQYSGWSACSKDRLSAGFLV showed a growth estimate of less than -0.25.
In the case of IGSHGG, the growth estimate is reported as less than -0.25.
SFQLRPPLLDATWTRLNRRS showed a growth estimate of less than -0.25.
For VICSKFPAKRSTCDYLVFLG, the growth estimate was less than -0.25.
RDIEGPFRQEVEAGGCA showed a growth estimate of less than -0.25.
CRSCMPRDYRLWGHANILPC was tested, and the growth estimate was less than -0.25.
DDSCNASR gave a growth estimate of less than -0.25.
VEKRHSSLSEER showed a growth estimate of less than -0.25.
HIRQGGGLNHAAGKREVLNP gave a growth estimate of less than -0.25.
For PRIRNDS, the growth estimate was less than -0.25.
TRTRSNETTAVKVCIYTTPD showed a growth estimate of less than -0.25.
ADRTPLGISDHHRTLLVGDG was tested, and the growth estimate was less than -0.25.
For PKSRYQCAQDE, the growth estimate was less than -0.25.
For VVGGRLGRPHRCRGELASYL, the growth estimate was less than -0.25.
Work on GVEYVLHGCRGNSRLYVNVC yielded a growth estimate of less than -0.25.
GDLDQTWTINDWPGGVDLPG gave a growth estimate of less than -0.25.
YTNKLDTSRCFRLSGIL gave a growth estimate of less than -0.25.
RISNVLSDDIM showed a growth estimate of less than -0.25.
Work on ELGSGRLNILAGEDGSGSDA yielded a growth estimate of less than -0.25.
In the case of GVLLVYV, the growth estimate is reported as less than -0.25.
TVHVGCLPFGWG was tested, and the growth estimate was less than -0.25.
Substance INTPCAGTDRKS has a growth estimate of less than -0.25.
In the case of QVSNGVHFFCSGVPCEYQPE, the growth estimate is reported as less than -0.25.
Substance MFADVSGTHKIHDVFSP has a growth estimate of less than -0.25.
For LRELTCCSPMCSFCHQYNTR, the growth estimate was less than -0.25.
Work on VHSPLDLYIGNAYTLN yielded a growth estimate of less than -0.25.
With VPPQGKKEL the growth estimate was less than -0.25.
In the case of GSHFPPFRLRVRIIWSHNPP, the growth estimate is reported as less than -0.25.
GRSRGSNKTVSAGQGKGMAQ gave a growth estimate of less than -0.25.
Work on TGCPPETPHSLTSKLPQSYV yielded a growth estimate of less than -0.25.
Work on RGHG yielded a growth estimate of less than -0.25.
For GQPNPGDRLN, the growth estimate was less than -0.25.
Substance LGRLTGFRSTTNLGLGQSQY has a growth estimate of less than -0.25.
For VTAETQVSRNKGVTYDDRPF, the growth estimate was less than -0.25.
Substance RKKAESRDGDVERRKVQFSS has a growth estimate of less than -0.25.
For LPWSGR, the growth estimate was -0.0376.
Work on RVILTE yielded a growth estimate of less than -0.25.
Substance IGSYGGVLPTVPSVADGRLA has a growth estimate of less than -0.25.
HLCQ gave a growth estimate of less than -0.25.
In the case of ACVMG, the growth estimate is reported as less than -0.25.
PPKSHQRIKVRVPSP was tested, and the growth estimate was less than -0.25.
With VVS the growth estimate was less than -0.25.
Work on GTTFVLQSNKNDLF yielded a growth estimate of less than -0.25.
Work on ATVGVPPHGLCGSKVVPATN yielded a growth estimate of less than -0.25.
With LQV the growth estimate was -0.2492 ± 0.0012.
RLKLCRDRLGIRLIRPYPWE was tested, and the growth estimate was less than -0.25.
In the case of ELNARGDRCAGHVLVI, the growth estimate is reported as -0.243.
PIGVASTCQA was tested, and the growth estimate was less than -0.25.
THGDLTMRQ gave a growth estimate of less than -0.25.
Work on DIRRPPARIEKNRRIRHHNG yielded a growth estimate of less than -0.25.
Substance QRDNTRRPNNGSWCGWPVRE has a growth estimate of less than -0.25.
SPTS showed a growth estimate of less than -0.25.
For ADRGLLSICLSQKR, the growth estimate was less than -0.25.
In the case of RTPRSQSRVGSVEEAR, the growth estimate is reported as less than -0.25.
DSHDGGKWASAPG was tested, and the growth estimate was less than -0.25.
Work on RKWEESMPPAGTKSKKGWGC yielded a growth estimate of less than -0.25.
Substance ETSRGLIQASCGNR has a growth estimate of less than -0.25.
Work on SRCYIRRLR yielded a growth estimate of less than -0.25.
GIHDVSGKANIRSTISLPTK was tested, and the growth estimate was less than -0.25.
In the case of SSPPHTC, the growth estimate is reported as less than -0.25.
With RDKEERCTASTLNIISAESR the growth estimate was less than -0.25.
Substance VRPRGPYAVILFSDDPNLHV has a growth estimate of less than -0.25.
